Laboratory results: paper PMC7024175, “In Depth Analysis of Kinase Cross Screening Data to Identify CAMKK2 Inhibitory Scaffolds” (Molecules, 2020)

Test system: MRC kinase panel
Experiment: MRC kinase profiling panel, 1 µM
Assay type: biochemical
Conditions: profiled at MRC

O=C(O)c1ccc(-c2c[nH]c3ncc(-c4ccccc4)cc23)cc1C1CCCC1 [GSK650394]
S10 value (85 kinases): 0.082
number of kinases inhibited by more than 90% (of 85 kinases): seven
